Reference: paper PMC4513986
No constants are given. Whether binding was seen depends on the method and setting. Binding seen in cells or lysates may run through a third protein.

Molecular target: T1, scavenger receptor class B type I (SR-BI) (mouse (endogenous in peritoneal macrophages)) (UniProt Q61009)
T1 sequence: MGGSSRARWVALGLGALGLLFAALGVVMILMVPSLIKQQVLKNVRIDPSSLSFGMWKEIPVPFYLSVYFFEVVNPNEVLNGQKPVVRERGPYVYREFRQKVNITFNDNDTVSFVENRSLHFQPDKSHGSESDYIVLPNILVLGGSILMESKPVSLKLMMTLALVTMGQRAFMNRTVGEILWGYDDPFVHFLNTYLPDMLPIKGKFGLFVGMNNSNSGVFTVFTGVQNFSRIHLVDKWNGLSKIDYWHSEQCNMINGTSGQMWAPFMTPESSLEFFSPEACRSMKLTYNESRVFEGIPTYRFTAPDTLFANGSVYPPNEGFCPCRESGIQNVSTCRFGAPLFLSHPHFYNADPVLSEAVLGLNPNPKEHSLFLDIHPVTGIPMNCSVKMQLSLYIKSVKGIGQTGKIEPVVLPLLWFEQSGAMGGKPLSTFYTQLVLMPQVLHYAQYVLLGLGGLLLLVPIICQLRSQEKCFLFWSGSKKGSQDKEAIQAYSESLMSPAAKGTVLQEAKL
Experiment: co-IP; WT mouse peritoneal macrophage lysates incubated with antibody (anti-SR-BI, anti-Src or anti-LRP1), then protein A/G magnetic beads; precipitated partner detected by Western blotting

- binding: no binding
B1: engulfment adaptor PTB domain (GULP) (protein, UniProt Q8K2A1 1-304)
chain: MNRAFSRKKDKTWMHTPEALSKHYIPYNAKFLGSTEVEQPKGTEVVRDAVRKLKFARHIKKSEGQKIPKVELQISIYGVKILEPKTKEVQHNCQLHRISFCADDKTDKRIFTFICKDSESNKHLCFVFDSEKCAEEITLTIGQAFDLAYRKFLESGGKDVETRKQIAGMQKRIQDLETENMELKNKVQDLESRLRTTQVSTSPAHGVTVMSPSTDIFDMIPFSPISHQSPTSARNGTQLPPIPSRSAETKRDLFGAEPFDPFNCGSGDFPPDIQSKLDEMQEGFKMGLTLEGTVFCLDPLDSRC
